# Test results reported in the supplement of paper PMC10849652.
# Sequences of proteins named here, by UniProt entry; tags and fusion partners are left off. A change or cut given only in a name is not applied to a line headed by its entry.
# UniProt Q8WVN8: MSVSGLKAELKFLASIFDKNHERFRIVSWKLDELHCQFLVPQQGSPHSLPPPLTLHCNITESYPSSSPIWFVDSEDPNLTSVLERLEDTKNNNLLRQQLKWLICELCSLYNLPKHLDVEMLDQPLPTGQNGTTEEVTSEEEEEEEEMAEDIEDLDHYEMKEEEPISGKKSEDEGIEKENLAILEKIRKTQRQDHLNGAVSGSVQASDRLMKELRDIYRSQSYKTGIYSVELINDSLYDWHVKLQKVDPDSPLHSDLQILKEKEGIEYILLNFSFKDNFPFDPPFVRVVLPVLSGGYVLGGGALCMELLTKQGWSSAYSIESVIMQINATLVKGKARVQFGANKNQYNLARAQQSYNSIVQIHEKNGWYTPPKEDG
# UniProt P22314: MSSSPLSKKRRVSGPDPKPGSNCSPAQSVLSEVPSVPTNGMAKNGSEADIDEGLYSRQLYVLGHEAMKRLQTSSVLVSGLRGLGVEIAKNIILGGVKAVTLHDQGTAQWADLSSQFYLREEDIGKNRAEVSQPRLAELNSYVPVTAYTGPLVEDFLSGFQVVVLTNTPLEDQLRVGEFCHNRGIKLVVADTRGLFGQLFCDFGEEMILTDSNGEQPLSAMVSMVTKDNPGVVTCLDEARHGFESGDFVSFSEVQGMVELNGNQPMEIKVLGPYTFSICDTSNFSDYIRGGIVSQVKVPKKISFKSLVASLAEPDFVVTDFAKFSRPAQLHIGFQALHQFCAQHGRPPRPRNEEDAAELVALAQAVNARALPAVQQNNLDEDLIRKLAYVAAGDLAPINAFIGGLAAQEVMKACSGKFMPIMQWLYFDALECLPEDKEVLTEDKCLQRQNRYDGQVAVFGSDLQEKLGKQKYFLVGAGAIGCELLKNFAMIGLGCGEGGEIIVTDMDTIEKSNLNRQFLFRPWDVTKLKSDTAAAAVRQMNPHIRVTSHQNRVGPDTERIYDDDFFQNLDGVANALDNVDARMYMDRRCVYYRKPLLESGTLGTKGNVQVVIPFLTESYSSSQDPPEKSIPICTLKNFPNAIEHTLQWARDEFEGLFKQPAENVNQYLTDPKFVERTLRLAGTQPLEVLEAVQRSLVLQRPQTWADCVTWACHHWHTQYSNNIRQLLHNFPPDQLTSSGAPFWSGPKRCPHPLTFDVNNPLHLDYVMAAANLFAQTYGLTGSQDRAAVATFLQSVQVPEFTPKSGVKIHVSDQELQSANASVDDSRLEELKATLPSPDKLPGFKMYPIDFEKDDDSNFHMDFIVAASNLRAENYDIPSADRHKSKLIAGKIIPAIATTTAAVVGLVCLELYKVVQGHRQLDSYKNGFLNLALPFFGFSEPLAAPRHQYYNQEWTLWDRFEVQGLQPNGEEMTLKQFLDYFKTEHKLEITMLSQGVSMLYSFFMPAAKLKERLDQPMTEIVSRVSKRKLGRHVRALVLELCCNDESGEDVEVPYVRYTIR
# UniProt Q96J42: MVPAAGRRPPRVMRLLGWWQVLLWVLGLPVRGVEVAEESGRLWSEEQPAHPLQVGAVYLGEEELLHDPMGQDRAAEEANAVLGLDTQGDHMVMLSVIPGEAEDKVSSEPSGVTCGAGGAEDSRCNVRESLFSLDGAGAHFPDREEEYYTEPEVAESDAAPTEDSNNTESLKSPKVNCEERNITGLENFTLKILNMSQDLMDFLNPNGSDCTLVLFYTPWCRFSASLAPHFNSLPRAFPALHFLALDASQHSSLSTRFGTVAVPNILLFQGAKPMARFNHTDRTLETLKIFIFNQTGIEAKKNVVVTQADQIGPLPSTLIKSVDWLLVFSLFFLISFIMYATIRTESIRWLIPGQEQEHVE
# UniProt Q14157: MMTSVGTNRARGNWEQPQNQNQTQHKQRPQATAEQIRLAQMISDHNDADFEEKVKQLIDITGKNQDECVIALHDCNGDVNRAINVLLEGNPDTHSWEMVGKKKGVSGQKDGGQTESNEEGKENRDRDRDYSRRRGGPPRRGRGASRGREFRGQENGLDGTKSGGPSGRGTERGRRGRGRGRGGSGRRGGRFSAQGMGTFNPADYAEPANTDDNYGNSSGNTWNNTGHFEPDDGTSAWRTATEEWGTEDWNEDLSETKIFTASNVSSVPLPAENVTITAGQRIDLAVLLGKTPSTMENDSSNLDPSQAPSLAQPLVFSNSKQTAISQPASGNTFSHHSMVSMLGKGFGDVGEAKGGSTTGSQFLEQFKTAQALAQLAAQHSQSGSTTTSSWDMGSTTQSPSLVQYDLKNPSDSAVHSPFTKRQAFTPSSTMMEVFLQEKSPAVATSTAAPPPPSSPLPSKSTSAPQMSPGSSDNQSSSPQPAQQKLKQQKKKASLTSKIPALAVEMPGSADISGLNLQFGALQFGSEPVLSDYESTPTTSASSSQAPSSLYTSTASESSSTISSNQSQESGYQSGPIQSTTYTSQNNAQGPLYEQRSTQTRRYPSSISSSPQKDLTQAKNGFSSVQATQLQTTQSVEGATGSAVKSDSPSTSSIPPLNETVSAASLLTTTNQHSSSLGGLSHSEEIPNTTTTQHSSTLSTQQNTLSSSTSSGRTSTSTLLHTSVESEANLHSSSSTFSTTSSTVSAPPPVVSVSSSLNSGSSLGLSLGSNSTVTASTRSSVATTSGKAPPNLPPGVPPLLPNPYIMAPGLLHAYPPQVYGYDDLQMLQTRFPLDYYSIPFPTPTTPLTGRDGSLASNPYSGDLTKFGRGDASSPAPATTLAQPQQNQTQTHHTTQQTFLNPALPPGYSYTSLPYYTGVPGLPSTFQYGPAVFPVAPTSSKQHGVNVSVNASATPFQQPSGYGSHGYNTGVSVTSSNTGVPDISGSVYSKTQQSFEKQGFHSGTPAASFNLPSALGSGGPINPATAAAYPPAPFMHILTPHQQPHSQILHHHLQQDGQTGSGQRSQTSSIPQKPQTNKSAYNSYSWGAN
# UniProt Q9H3M7: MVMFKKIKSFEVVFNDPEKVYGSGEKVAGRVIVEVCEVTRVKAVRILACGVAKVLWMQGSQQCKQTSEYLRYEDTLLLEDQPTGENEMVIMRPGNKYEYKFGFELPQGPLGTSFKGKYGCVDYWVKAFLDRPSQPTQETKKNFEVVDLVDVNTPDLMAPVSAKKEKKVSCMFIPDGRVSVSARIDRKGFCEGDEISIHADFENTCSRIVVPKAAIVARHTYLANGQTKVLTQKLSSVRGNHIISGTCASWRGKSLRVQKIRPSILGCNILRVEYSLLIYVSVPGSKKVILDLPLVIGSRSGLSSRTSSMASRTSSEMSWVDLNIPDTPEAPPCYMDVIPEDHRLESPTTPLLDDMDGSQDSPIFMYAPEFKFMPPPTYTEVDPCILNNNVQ
# UniProt Q9NNX1: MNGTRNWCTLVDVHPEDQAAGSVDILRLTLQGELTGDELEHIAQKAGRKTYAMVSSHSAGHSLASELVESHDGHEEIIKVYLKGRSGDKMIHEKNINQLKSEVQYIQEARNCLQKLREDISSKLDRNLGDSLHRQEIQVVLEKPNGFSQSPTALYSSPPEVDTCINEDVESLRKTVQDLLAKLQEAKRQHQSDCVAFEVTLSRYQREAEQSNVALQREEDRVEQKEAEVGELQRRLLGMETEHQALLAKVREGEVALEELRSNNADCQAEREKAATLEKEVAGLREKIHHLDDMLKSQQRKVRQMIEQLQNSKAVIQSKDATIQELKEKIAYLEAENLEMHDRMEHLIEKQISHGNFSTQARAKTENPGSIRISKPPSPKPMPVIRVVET
# UniProt Q9NNW7, whole entry, looked up: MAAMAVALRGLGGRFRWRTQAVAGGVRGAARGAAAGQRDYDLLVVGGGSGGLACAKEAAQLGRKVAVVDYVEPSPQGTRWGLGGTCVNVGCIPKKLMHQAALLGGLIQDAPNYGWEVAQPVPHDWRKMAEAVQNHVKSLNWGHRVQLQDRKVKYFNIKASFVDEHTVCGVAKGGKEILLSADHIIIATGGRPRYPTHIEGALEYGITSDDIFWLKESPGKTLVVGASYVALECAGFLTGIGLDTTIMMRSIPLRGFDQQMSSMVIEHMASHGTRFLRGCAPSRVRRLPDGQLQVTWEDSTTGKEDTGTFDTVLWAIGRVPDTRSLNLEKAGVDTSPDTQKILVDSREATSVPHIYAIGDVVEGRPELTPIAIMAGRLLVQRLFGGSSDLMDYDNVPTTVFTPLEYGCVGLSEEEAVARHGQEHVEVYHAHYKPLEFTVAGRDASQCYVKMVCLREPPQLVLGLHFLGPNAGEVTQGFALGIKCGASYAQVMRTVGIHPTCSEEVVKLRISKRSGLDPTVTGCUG
# UniProt O00124: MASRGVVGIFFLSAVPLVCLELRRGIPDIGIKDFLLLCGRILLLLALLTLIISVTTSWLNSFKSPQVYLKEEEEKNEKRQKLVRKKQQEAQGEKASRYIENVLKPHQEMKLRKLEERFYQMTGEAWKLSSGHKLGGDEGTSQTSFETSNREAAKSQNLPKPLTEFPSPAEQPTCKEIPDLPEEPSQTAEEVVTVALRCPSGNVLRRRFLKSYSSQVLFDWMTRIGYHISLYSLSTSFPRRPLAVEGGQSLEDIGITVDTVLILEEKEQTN
# UBE2L5, A0A1B0GUS4, UniProt A0A1B0GUS4, whole entry, looked up: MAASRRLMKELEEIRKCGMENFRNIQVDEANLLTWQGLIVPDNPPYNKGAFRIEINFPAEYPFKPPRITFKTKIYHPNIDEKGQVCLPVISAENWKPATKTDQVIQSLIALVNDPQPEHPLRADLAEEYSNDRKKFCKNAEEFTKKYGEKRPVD
# UniProt Q9UMX0, whole entry, looked up: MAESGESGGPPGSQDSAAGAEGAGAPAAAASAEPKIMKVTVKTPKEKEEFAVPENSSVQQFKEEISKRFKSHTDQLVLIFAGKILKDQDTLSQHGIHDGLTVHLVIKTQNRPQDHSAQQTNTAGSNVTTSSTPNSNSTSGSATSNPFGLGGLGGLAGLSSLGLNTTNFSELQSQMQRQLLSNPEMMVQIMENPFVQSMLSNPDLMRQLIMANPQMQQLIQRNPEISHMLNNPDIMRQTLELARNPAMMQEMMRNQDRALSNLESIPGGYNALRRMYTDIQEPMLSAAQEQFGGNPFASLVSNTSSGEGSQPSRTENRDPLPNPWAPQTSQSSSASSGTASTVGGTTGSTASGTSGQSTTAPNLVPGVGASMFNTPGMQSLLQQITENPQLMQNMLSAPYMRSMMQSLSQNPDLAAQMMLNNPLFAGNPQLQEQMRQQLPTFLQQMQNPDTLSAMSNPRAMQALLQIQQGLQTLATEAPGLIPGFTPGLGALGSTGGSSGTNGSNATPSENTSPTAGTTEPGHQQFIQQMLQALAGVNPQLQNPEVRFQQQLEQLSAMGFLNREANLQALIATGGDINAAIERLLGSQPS
# UniProt Q9NY65, whole entry, looked up: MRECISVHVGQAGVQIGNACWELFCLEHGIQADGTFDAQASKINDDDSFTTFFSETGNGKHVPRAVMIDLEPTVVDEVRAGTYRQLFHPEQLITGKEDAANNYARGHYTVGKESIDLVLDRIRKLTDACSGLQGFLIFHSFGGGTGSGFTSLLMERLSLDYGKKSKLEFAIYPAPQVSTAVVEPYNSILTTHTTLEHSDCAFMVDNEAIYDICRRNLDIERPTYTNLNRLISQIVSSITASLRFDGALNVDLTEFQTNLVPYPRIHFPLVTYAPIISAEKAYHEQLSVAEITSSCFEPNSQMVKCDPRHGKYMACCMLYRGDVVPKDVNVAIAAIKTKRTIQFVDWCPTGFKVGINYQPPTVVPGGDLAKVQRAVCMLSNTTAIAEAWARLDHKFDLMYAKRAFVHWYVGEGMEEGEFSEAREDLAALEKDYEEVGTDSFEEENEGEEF
# UniProt Q9C0H2: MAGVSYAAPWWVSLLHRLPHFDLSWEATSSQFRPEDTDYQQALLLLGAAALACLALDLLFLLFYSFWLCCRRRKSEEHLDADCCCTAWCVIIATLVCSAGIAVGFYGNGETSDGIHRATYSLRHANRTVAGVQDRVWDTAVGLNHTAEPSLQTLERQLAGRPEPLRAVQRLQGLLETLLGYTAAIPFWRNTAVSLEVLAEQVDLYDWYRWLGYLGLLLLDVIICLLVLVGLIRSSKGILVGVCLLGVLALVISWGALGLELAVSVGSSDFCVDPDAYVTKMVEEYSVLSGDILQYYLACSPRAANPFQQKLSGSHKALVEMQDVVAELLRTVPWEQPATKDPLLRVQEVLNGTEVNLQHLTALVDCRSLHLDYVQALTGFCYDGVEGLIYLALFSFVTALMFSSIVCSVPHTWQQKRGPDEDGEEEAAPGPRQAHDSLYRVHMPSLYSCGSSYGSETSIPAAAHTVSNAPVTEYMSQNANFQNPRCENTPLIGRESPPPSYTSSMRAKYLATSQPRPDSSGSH
# UniProt Q96ET8: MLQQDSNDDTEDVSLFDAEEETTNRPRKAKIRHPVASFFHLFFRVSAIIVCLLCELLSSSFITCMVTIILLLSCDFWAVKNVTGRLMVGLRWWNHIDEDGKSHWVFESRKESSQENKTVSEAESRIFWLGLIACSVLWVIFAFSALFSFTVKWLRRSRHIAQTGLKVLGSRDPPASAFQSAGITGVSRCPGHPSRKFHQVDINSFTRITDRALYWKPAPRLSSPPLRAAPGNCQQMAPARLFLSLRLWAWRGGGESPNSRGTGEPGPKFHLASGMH
# UniProt Q96B02: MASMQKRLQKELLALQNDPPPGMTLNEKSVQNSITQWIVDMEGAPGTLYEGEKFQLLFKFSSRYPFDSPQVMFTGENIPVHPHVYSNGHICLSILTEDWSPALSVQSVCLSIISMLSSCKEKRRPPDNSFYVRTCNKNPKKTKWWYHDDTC
# The list shows a part of the results.
# Key:
# Test in all cases: log2 fold change, soluble protein after heating vs DMSO (PISA); higher = thermal stabilisation; K562 lysate, 10 uM; active = over 0.2 and 3.5 SD of the protein, either way, in both replicates (recomputed)
# ibrutinib = compound: C=CC(=O)N1CCC[C@@H](n2nc(-c3ccc(Oc4ccccc4)cc3)c3c(N)ncnc32)C1 [ibrutinib]
# In short: (§1)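 K562 pellets were dounce-homogenised in PBS pH 7.4 containing 1 mM MgCl2, and the crude extract, at 1 mg/mL protein, was exposed to 10 μM compound for 30 min. Aliquots were heated for 3 min across 48°C-58°C, pooled, brought to 0.5% NP-40 at 4°C and spun at 21,000xg for 90 min, with the supernatant taken as soluble protein. TMTpro 16plex LC-MS/MS with equalised channel sums quantified that protein. Values are log-two fold changes in thermal stability relative to solvent controls, taken from duplicates.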
# [1] = compound: CC(=O)c1cnc2ccc(-c3cc(Cl)c(O)c(Cl)c3)nc2c1N[C@H]1CC[C@H](CN(C)C)CC1
# In short: as §1
# ralimetinib = compound: CC(C)(C)Cn1c(N)nc2ccc(-c3[nH]c(C(C)(C)C)nc3-c3ccc(F)cc3)nc21 [ralimetinib]
# In short: as §1
# [2] = compound: CC(C)(O)CC(=O)NCCn1ccc2ncnc(Nc3ccc(Oc4cccc(C(F)(F)F)c4)c(Cl)c3)c21
# In short: as §1
# [3] = compound: CC(C)C1=C2N=C(C=C(N2N=C1)NCC3=CC=CC=C3)NCCCCCCN
# In short: as §1
# [4] = compound: CC1=C(C(CC(=O)N1)C2=CC=C(C=C2)C(F)(F)F)C(=O)NC3=C(C=C4C(=C3)C=NN4)F
# In short: as §1
# [5] = compound: CC1=C(C2=C(C=C1)C(=O)C3=CC=CC=C3N2CCCN)C
# In short: as §1
# [6] = compound: CC1=C(C=C(C=C1)NC(=O)C2=CC(=CC=C2)N(C)C)NC(=O)C3=CC=C(C=C3)O
# In short: as §1
# [7] = compound: CC1=CC=C(C=C1)SC2=C3C=C(SC3=CN=C2)C(=O)N
# In short: as §1
# vemurafenib = compound: CCCS(=O)(=O)Nc1ccc(F)c(C(=O)c2c[nH]c3ncc(-c4ccc(Cl)cc4)cc23)c1F [vemurafenib]
# In short: as §1
# [8] = compound: CCCS(=O)(=O)Nc1ccc(F)c(C(=O)c2c[nH]c3ncc(Cl)cc23)c1F
# In short: as §1
# barasertib = compound: CCN(CCCOc1ccc2c(Nc3cc(CC(=O)Nc4cccc(F)c4)[nH]n3)ncnc2c1)CCOP(=O)(O)O [barasertib]
# In short: as §1
# [9] = compound: CC[C@@H]1C(=O)N(C)c2cnc(Nc3ccc(C(=O)NC4CCN(C)CC4)cc3OC)nc2N1C1CCCC1
# In short: as §1
# volasertib = compound: CC[C@@H]1C(=O)N(C)c2cnc(Nc3ccc(C(=O)N[C@H]4CC[C@H](N5CCN(CC6CC6)CC5)CC4)cc3OC)nc2N1C(C)C [volasertib]
# In short: as §1
# [10] = compound: CCn1c(C(=O)N(C2CC2)C2CC2)cc2c3c(ncn3C)c(Nc3cc(C)n(C)n3)nc21
# In short: as §1
# [11] = compound: CCn1cc(-c2ccnc3[nH]c(-c4cccc(CN(C)C)c4)cc23)c(-c2ccc(NC(=O)N(C)C)cc2)n1
# In short: as §1
# [12] = compound: CN1CCC(CNc2ccc3ncc(-c4cccc(OC(F)(F)F)c4)n3n2)CC1
# In short: as §1
# saracatinib = compound: CN1CCN(CCOc2cc(OC3CCOCC3)c3c(Nc4c(Cl)ccc5c4OCO5)ncnc3c2)CC1 [saracatinib]
# In short: as §1
# [13] = compound: CC1=C(C=C(C=C1)NC(=O)C2=CC(=CC=C2)C(C)(C)C#N)NC3=CC4=C(C=C3)N=CN(C4=O)C
# In short: as §1
# sotrastaurin = compound: CN1CCN(c2nc(C3=C(c4c[nH]c5ccccc45)C(=O)NC3=O)c3ccccc3n2)CC1 [sotrastaurin]
# In short: as §1
Target,log2 fold change (ibrutinib),log2 fold change [1],log2 fold change (ralimetinib),log2 fold change [2],log2 fold change [3],log2 fold change [4],log2 fold change [5],log2 fold change [6],log2 fold change [7],log2 fold change (vemurafenib),log2 fold change [8],log2 fold change (barasertib),log2 fold change [9],log2 fold change (volasertib),log2 fold change [10],log2 fold change [11],log2 fold change [12],log2 fold change (saracatinib),log2 fold change [13],log2 fold change (sotrastaurin)
UBE2Q2 (UniProt Q8WVN8),inactive: 0.046,inactive: 0.061,inactive: 0.014,inactive: -0.058,inactive: 0.131,inactive: 0.026,inactive: -0.042,inactive: -0.152,inactive: 0.086,inactive: 0.176,inactive: -0.077,inactive: 0.06,inactive: 0.305,inactive: -0.015,inactive: 0.072,inactive: 0.017,inactive: 0.071,inactive: 0.057,–,–
UBA1 (UniProt P22314),inactive: -0.002,inactive: 0.003,inactive: 0.053,inactive: 0,inactive: 0.027,inactive: -0.018,inactive: 0.006,inactive: 0.015,inactive: 0.02,inactive: 0.018,inactive: 0.005,inactive: 0.023,inactive: -0.063,inactive: -0.036,inactive: -0.006,inactive: -0.027,inactive: 0.004,inactive: -0.02,inactive: 0,inactive: 0.008
TXNDC15 (UniProt Q96J42),inactive: -0.059,inactive: -0.002,inactive: -0.014,inactive: -0.044,inactive: -0.017,inactive: 0.021,inactive: 0.031,inactive: 0.019,inactive: -0.035,inactive: -0.042,inactive: 0.046,inactive: 0.026,inactive: 0.093,inactive: -0.008,inactive: 0.013,inactive: -0.029,inactive: 0.002,inactive: 0.044,inactive: 0.068,inactive: -0.03
TUBB4A (UniProt M0QYM7),inactive: 0.092,inactive: 0.049,inactive: 0.103,inactive: -0.117,inactive: 0.005,inactive: -0.102,–,inactive: 0.102,inactive: 0.024,inactive: 0.019,inactive: -0.099,inactive: 0.315,inactive: -0.193,inactive: -0.069,inactive: -0.053,inactive: -0.772,inactive: 0.448,–,inactive: 0.13,inactive: 0.111
UBL5 (UniProt Q9BZL1),inactive: 0.052,–,inactive: -0.029,inactive: 0.04,inactive: -0.003,inactive: -0.056,inactive: 0.032,inactive: 0.037,–,inactive: 0.014,–,inactive: 0.036,inactive: -0.015,–,inactive: -0.028,inactive: -0.126,inactive: 0.097,inactive: -0.007,inactive: 0.038,inactive: -0.186
UBAP2L isoform 1 (UniProt Q14157),inactive: -0.075,–,inactive: -0.306,inactive: -0.123,–,inactive: 0.114,–,inactive: -0.161,–,–,–,inactive: 0.001,–,–,inactive: 0.207,–,–,–,active: -0.833,inactive: -0.105
TXNIP (UniProt Q9H3M7),inactive: -0.009,–,inactive: 0.007,inactive: -0.02,inactive: -0.053,inactive: 0.011,inactive: -0.036,inactive: 0.016,–,inactive: 0.008,–,inactive: -0.005,inactive: -0.006,–,inactive: 0.016,inactive: 0.209,inactive: -0.11,inactive: -0.07,inactive: 0.037,inactive: 0.016
TUFT1 (UniProt Q9NNX1),inactive: 0.011,–,inactive: -0.008,inactive: 0.001,inactive: -0.177,inactive: 0.016,–,inactive: -0.024,–,–,–,inactive: -0.102,inactive: 0.284,–,inactive: 0.023,inactive: -0.018,inactive: 0.117,–,–,–
U2AF1L5 (UniProt P0DN76),–,inactive: -0.047,inactive: -0.019,inactive: 0.001,inactive: 0.069,inactive: -0.008,inactive: -0.003,inactive: 0.143,inactive: 0.011,–,inactive: -0.013,–,inactive: 0.027,inactive: -0.036,inactive: 0.015,active: -1.21,inactive: 0.389,inactive: -0.007,–,–
TXNRD2 isoform 3 (UniProt Q9NNW7),–,–,inactive: -0.018,inactive: -0.323,inactive: -0.303,–,–,inactive: 0.079,–,–,–,–,–,–,inactive: -0.081,–,–,–,–,–
TUBA4A (UniProt C9JQ00),inactive: 0.125,–,–,–,–,–,–,–,–,–,–,inactive: 0.267,–,–,–,inactive: 0,inactive: -0.045,–,–,–
UBXN8 (UniProt O00124),–,–,inactive: 0.027,inactive: -0.298,inactive: -0.041,inactive: -0.006,inactive: -0.316,inactive: -0.013,–,–,–,–,inactive: 0.012,–,inactive: 0.005,inactive: 0,inactive: 0.171,inactive: 0.109,inactive: 0.099,inactive: 0.013
UBQLN1 (UniProt H0YEZ9),–,–,–,–,inactive: 0.012,–,–,–,–,–,–,–,–,–,–,–,–,–,–,–
"UBE2L5, A0A1B0GUS4",–,inactive: 0.018,inactive: -0.098,inactive: 0.107,inactive: 0.085,–,–,inactive: 0.112,inactive: 0.011,–,inactive: 0.116,–,–,inactive: -0.114,inactive: -0.119,inactive: 0.031,inactive: 0.166,–,–,–
TXNDC16 (UniProt Q9P2K2),–,inactive: 0.059,inactive: -0.19,inactive: -0.131,inactive: 0.149,–,inactive: 0.036,inactive: 0.045,inactive: -0.07,inactive: -0.06,inactive: 0.21,–,–,inactive: -0.123,inactive: 0.095,inactive: -0.014,inactive: -0.068,inactive: 0.068,inactive: 0.006,inactive: -0.099
UBE2O (UniProt K7ES11),–,inactive: 0.096,–,–,–,–,–,–,inactive: -0.05,–,inactive: 0.171,–,–,inactive: -0.012,–,inactive: 0.676,inactive: -0.44,–,–,–
UBA7 (UniProt P41226),–,–,–,–,inactive: 0.074,–,–,–,–,–,–,–,–,–,–,inactive: 0.107,inactive: -0.018,–,inactive: -0.015,inactive: 0
UBQLN1 isoform 2 (UniProt Q9UMX0),–,inactive: 0,inactive: -0.051,inactive: 0.018,inactive: -0.32,–,inactive: -0.015,inactive: -0.013,inactive: 0.094,inactive: -0.108,inactive: 0.065,–,inactive: 0.024,inactive: -0.021,inactive: -0.058,–,–,inactive: -0.06,inactive: -0.024,inactive: 0.034
TUBA8 (UniProt Q9NY65),inactive: -0.025,–,–,–,inactive: -0.01,inactive: -0.055,inactive: -0.135,–,–,–,–,inactive: -0.051,inactive: -0.051,–,–,inactive: -0.359,inactive: 0.132,inactive: 0.149,–,–
TTYH3 isoform 4 (UniProt Q9C0H2),–,–,–,–,inactive: -0.209,–,–,–,–,–,–,–,–,–,–,–,–,–,–,–
UBE2K (UniProt D6RDM7),–,inactive: -0.219,–,–,inactive: 0.03,inactive: -0.12,–,–,inactive: -0.06,inactive: 0.13,inactive: -0.075,–,inactive: -0.124,inactive: 0.214,–,–,–,–,–,–
TVP23C (UniProt Q96ET8),–,–,–,–,–,–,–,–,–,–,–,–,–,–,–,inactive: -0.054,inactive: 0.215,–,inactive: 0.062,inactive: 0.034
UBE2W isoform 3 (UniProt Q96B02),inactive: 0.189,–,–,–,inactive: 0.041,–,–,–,–,inactive: -0.013,–,inactive: 0.065,–,–,–,–,–,–,–,–

# Nothing new here: an excerpt of the list.
Target,log2 fold change (ibrutinib),log2 fold change [1],log2 fold change (ralimetinib),log2 fold change [2],log2 fold change [3],log2 fold change [4],log2 fold change [5],log2 fold change [6],log2 fold change [7],log2 fold change (vemurafenib),log2 fold change [8],log2 fold change (barasertib),log2 fold change [9],log2 fold change (volasertib),log2 fold change [10],log2 fold change [11],log2 fold change [12],log2 fold change (saracatinib),log2 fold change [13],log2 fold change (sotrastaurin)
"UBE2L5, A0A1B0GUS4",–,inactive: 0.018,inactive: -0.098,inactive: 0.107,inactive: 0.085,–,–,inactive: 0.112,inactive: 0.011,–,inactive: 0.116,–,–,inactive: -0.114,inactive: -0.119,inactive: 0.031,inactive: 0.166,–,–,–
TXNDC16 (UniProt Q9P2K2),–,inactive: 0.059,inactive: -0.19,inactive: -0.131,inactive: 0.149,–,inactive: 0.036,inactive: 0.045,inactive: -0.07,inactive: -0.06,inactive: 0.21,–,–,inactive: -0.123,inactive: 0.095,inactive: -0.014,inactive: -0.068,inactive: 0.068,inactive: 0.006,inactive: -0.099
UBE2O (UniProt K7ES11),–,inactive: 0.096,–,–,–,–,–,–,inactive: -0.05,–,inactive: 0.171,–,–,inactive: -0.012,–,inactive: 0.676,inactive: -0.44,–,–,–
UBA7 (UniProt P41226),–,–,–,–,inactive: 0.074,–,–,–,–,–,–,–,–,–,–,inactive: 0.107,inactive: -0.018,–,inactive: -0.015,inactive: 0
UBQLN1 isoform 2 (UniProt Q9UMX0),–,inactive: 0,inactive: -0.051,inactive: 0.018,inactive: -0.32,–,inactive: -0.015,inactive: -0.013,inactive: 0.094,inactive: -0.108,inactive: 0.065,–,inactive: 0.024,inactive: -0.021,inactive: -0.058,–,–,inactive: -0.06,inactive: -0.024,inactive: 0.034
TUBA8 (UniProt Q9NY65),inactive: -0.025,–,–,–,inactive: -0.01,inactive: -0.055,inactive: -0.135,–,–,–,–,inactive: -0.051,inactive: -0.051,–,–,inactive: -0.359,inactive: 0.132,inactive: 0.149,–,–
